These are yes or no findings as the source states them, for the method shown. In cells and extracts the contact can be indirect. Some entries that bind do so weakly or less than the wild type. Where a sequence is shown, tags or fusion partners need not be part of it.
Target: GST-MORN4 recombinant protein (human MORN4) (human) (UniProt Q8NDC4)
Assay: pull-down; GST-MORN4 or GST alone bound to glutathione-agarose beads 1 hr at 4°C, then incubated 2 hr with GFP-tagged MYO3A tail in COS7 lysate in CLB (5mM DTT, 150mM NaCl, 1% Triton X-100, 50mM Tris pH 7.4, 2mM EDTA); beads washed 3 times; western blot; only the target purified

Amino acid sequences for entries named in this document (tags omitted).
UniProt Q8NDC4: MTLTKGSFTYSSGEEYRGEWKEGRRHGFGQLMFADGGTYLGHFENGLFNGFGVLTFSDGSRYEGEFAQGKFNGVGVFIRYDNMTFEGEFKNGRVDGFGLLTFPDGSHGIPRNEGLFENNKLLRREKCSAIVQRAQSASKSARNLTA

binding: binds
B1: GFP-MYO3A Tail FL (human myosin IIIA tail, lacks the kinase and motor domains) (domain or fragment, UniProt Q8NEV4-1 1133-1616)
chain: RESFVKKQAENAISANERFISAPNNKGSVSVVKTSTFKPEEETTNAVESNNRVYQTPKKMNNVYEEEVKQEFYLVGPEVSPKQKSVKDLEENSNLRKVEKEEAMIQSYYQRYTEERNCEESKAAYLERKAISERPSYPVPWLAENETSFKKTLEPTLSQRSIYQNANSMEKEKKTSVVTQRAPICSQEEGRGRLRHETVKERQVEPVTQAQEEEDKAAVFIQSKYRGYKRRQQLRKDKMSSFKHQRIVTTPTEVARNTHNLYSYPTKHEEINNIKKKDNKDSKATSEREACGLAIFSKQISKLSEEYFILQKKLNEMILSQQLKSLYLGVSHHKPINRRVSSQQCLSGVCKGEEPKILRPPRRPRKPKTLNNPEDSTYYYLLHKSIQEEKRRPRKDSQGKLLDLEDFYYKEFLPSRSGPKEHSPSLRERRPQQELQNQCIKANERCWAAESPEKEEEREPAANPYDFRRLLRKTSQRRRLVQQS

From paper PMC4379085
